# Data as given in PubChem BioAssay AID686943 (Drosophila RNAi Screening Center, 2013)
# Screen: 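Knockdowns that increase or decrease active ERK after insulin receptor stimulation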 (primary screen)
# System: Drosophila S2R+ haemocyte-like cells expressing YFP-tagged ERK (Rolled)
# Reagent: long dsRNA against Drosophila genes
# Conditions: insulin stimulation versus unstimulated cells; dose and duration not given
# Measurement: 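Per-plate z-scores of phospho-ERK immunostaining normalised to YFP-tagged ERK, measured with and without insulin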
# Direction: replicate 1, z-score of dpERK with insulin: higher = more active ERK per ERK-YFP after insulin
# The screen tested about 23,000 reagents; below is an unselected part of those with a known target gene and a result. 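Extra replicates exist only for a retested subset of genes; insulin dose and duration not given; both raised and lowered dpERK matter.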 Reagents against one gene are numbered here. A plus sign joins genes that one reagent is predicted to hit. Further read-outs or replicates are left out here. Not given: the amount of reagent, the time to read-out.
gene knocked down,dsRNA no.,"replicate 1, z-score of dpERK with insulin"
CG34447,1,0.79
CG13445,1,-0.25
CG10428,1,-0.07
CG6271,1,0.89
nac (neuronally altered carbohydrate),1,-0.18
CG14835,1,-0.32
MED14 (Mediator complex subunit 14),1,3.29
CG11374,1,0.2
Pgm2a (Phosphoglucomutase 2a),1,-0.33
CG43057,1,0.26
inaC (inactivation no afterpotential C),1,-0.87
prim (primacord),1,-0.04
mRpS21 (mitochondrial ribosomal protein S21),1,-0.48
mRpS21 (mitochondrial ribosomal protein S21),2,0.8
atl (atlastin),1,1.61

Individual results from the entries so far:
Under “replicate 1, z-score of dpERK with insulin”, MED14 (Mediator complex subunit 14) is entered as 3.29
Result of Pgm2a (Phosphoglucomutase 2a) in “replicate 1, z-score of dpERK with insulin”: -0.33
For “replicate 1, z-score of dpERK with insulin”, mRpS21 (mitochondrial ribosomal protein S21) #2 is entered as 0.8
Under “replicate 1, z-score of dpERK with insulin”, inaC (inactivation no afterpotential C) is entered as -0.87

The listing continues.
gene knocked down,dsRNA no.,"replicate 1, z-score of dpERK with insulin"
CG2611,1,0.45
zye,1,0.64
CG9447,1,-1.11
Alp13 (Alkaline phosphatase 13),1,0.65
CG18508,1,0.94
Grl65a (Gustatory receptor-like 65a),1,0.77
CG33704,1,-0.54
Lcp65Ab2 + Lcp65Ab1,1,0.02
Lcp65Ab2 + Lcp65Ab1,2,0.99
